Measurements from “University of Dundee, Small-Polar-MMV Screening Library” (2021), ChEMBL document CHEMBL3988442.

Chains of the proteins cited; added tags and fusions are not shown.
UniProt E9BF75, entry or part of it: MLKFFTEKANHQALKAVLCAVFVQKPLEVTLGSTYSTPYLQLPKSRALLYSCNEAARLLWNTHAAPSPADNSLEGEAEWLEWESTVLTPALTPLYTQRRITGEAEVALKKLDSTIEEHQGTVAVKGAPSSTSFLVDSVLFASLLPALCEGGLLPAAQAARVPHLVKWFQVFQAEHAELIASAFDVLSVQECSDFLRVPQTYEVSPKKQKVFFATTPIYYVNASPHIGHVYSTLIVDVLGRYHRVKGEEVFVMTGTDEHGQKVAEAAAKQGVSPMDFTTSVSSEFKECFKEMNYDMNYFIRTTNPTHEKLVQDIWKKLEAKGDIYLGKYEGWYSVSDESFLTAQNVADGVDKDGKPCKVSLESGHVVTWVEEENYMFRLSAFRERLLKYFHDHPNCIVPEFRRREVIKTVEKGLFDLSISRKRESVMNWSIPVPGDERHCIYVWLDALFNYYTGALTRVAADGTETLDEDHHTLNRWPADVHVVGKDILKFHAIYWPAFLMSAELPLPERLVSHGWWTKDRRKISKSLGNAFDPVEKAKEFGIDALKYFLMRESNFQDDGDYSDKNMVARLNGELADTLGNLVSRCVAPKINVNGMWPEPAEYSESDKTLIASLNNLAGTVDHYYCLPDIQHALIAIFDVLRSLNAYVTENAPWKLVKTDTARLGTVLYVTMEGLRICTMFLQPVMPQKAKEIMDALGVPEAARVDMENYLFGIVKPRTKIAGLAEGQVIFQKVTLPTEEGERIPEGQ

Mtb heat-shock: 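Assay on Mycobacterium tuberculosis, filed only as a heat shock assay from Cornell; the read-out is not stated. The concentration is filed as 10 mM, unlikely as a test dose, so the dose is not known. Direction is inferred from retests: higher values go with stronger inhibition. About 69,000 compounds were tested under these conditions; 1.4% (about 930) showed 50% or more at least once.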
Mtb growth Cornell: 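Whole-cell assay for inhibitors of Mycobacterium tuberculosis growth, labelled Cornell in the record; the read-out is not stated. The concentration is filed as 10 mM, unlikely as a test dose, so the dose is not known. The record gives no direction; compounds strong in two other growth screens of this library score well above the rest, so higher reads as stronger inhibition. Of about 53,000 compounds tested this way, about 900 (1.7%) reached 50% or more in at least one test.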
LdMetRS: 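Methionyl-tRNA synthetase (putative), Leishmania donovani (UniProt E9BF75). Primary screen of methionyl-tRNA synthetase; the read-out is not stated. The test concentration is not given. The values are filed as inhibition. Of about 68,000 compounds tested this way, about 24 (0.035%) reached 50% or more in at least one test.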

All values are in %. The controls that fix the scale are not given in the record; negative values are as filed. This is an unselected part of the compounds tested.

c1nc2n(n1)CC(NCc1csc(-c3ccsc3)n1)CC2 (stereo not shown) read Mtb heat-shock: 9.118%; Mtb growth Cornell: 24.3%; LdMetRS: 7.975%.
CN(C)C1(CNc2nccc(-c3cnn(C)c3)n2)CCSC1 (stereo not shown) read Mtb heat-shock: -17.48%; Mtb growth Cornell: 0.5252%; LdMetRS: 0.6849%.
COc1cccc(S(=O)(=O)NC(=O)c2c(C)noc2C(C)C)c1 read Mtb heat-shock: 6.006%; Mtb growth Cornell: 28.27%; LdMetRS: 14.1%.
CCc1nc(CN(C)c2nccc(N3CCCC(O)C3)n2)no1 (stereo not shown) read Mtb heat-shock: -3%; LdMetRS: 2.872%.
CC(C)(C)C(=O)N1CCCC1c1cc(CO)[nH]n1 (stereo not shown) read Mtb heat-shock: 6.644%; Mtb growth Cornell: -9.501%; LdMetRS: 4.07%.
N#CCCN(CC1CCCO1)C(=O)c1ccc2nonc2c1 (stereo not shown) read Mtb heat-shock: 12.9%; Mtb growth Cornell: 7.744%; LdMetRS: 10.28%.
Cc1nn(C)c(C)c1CCC(=O)Nc1nnc(C2CC2)s1 read Mtb heat-shock: -22.3%; LdMetRS: -0.7519%.
Cc1ccc(CNc2cc3c(cc2Cl)NC(=O)CO3)cc1C read Mtb heat-shock: -3.431%; Mtb growth Cornell: -5.548%; LdMetRS: 9.756%.
O=C(CO)N1CCN(C(=O)c2coc3ccccc23)CC1 read Mtb heat-shock: 7.665%; Mtb growth Cornell: 32.19%; LdMetRS: 14.44%.
Cn1nc(COCC2CC2)c2c1CCN(Cc1ccco1)C2.O=C(O)C(F)(F)F read Mtb heat-shock: -2.504%.
CC(C)C(=O)NC1COC2(CCN(C(=O)c3cccnc3)CC2)C1 (stereo not shown) read Mtb heat-shock: -4.582%; LdMetRS: 6.667%.
CCCc1cc(C(=O)Nc2nc(SC)ns2)n(C)n1 read Mtb heat-shock: 14.9%; Mtb growth Cornell: 25.7%; LdMetRS: 12.46%.
COc1ccccc1CNC(=O)C[S+]([O-])Cc1cc(C)on1 (stereo not shown) read Mtb heat-shock: 0.6492%; Mtb growth Cornell: -24.7%; LdMetRS: 15.67%.
O=C(O)C(F)(F)F.[H][C@@]12CCN(Cc3ccccc3F)C[C@]1(C(=O)N1CCOCC1)CCO2 read Mtb heat-shock: -13.67%.
O=C(CN1CCC(c2cc(=O)n3c(n2)CCCCC3)C1)N1CCCCC1.O=C(O)CC(O)(CC(=O)O)C(=O)O (stereo not shown) read Mtb heat-shock: -4.103%; Mtb growth Cornell: -17.3%.
Cc1cc(C)c(C(=O)N2CCOCC2c2c(C)n[nH]c2C)o1 (stereo not shown) read Mtb heat-shock: 8.462%; LdMetRS: 9.726%.
CNC(=O)NC(=O)CN(CC(C)O)c1ccccc1 (stereo not shown) read Mtb heat-shock: 8.164%; Mtb growth Cornell: -26.82%; LdMetRS: 2.405%.
Cc1csc(CN(C)C(=O)Nc2cnn(CC3CCCO3)c2)n1 (stereo not shown) read Mtb heat-shock: 7.252%; LdMetRS: 8.122%.
COCC(=O)N1CC[C@@H](OCC2CC2)[C@@H]1Cc1cccnc1 read LdMetRS: 14.01%.
CC(NC1(CNS(C)(=O)=O)CCCC1)c1ccccc1 (stereo not shown) read Mtb heat-shock: -12.37%; Mtb growth Cornell: 7.19%; LdMetRS: 9.424%.
COCCS(=O)(=O)NCC(C)c1cccc(C)c1 (stereo not shown) read Mtb heat-shock: 18.08%; Mtb growth Cornell: 5.802%; LdMetRS: 15.86%.
CN1CCCN(C(=O)NCc2cc(Br)cs2)CC1 read Mtb heat-shock: -29.68%; LdMetRS: 15.56%.
CC[C@H]1COCCN1C(=O)c1cnc(C(C)C)nc1C read Mtb heat-shock: -10.05%; Mtb growth Cornell: -11.14%; LdMetRS: 4.192%.
Cn1cccc1C(=O)NS(=O)(=O)c1cnn(-c2ccccc2F)c1 read Mtb heat-shock: -2.559%; Mtb growth Cornell: -18.36%; LdMetRS: -4.348%.
O=C(O)C(F)(F)F.O=C(O)C(F)(F)F.[H][C@@]12OCCN(CC3CCOCC3)[C@@]1([H])CC[C@H]2OCCCn1cccn1 read Mtb heat-shock: 7.852%; Mtb growth Cornell: -30.39%.
Cl.Cn1cc(CNC2CCC(O)CC2)c(-c2cc3ccccc3o2)n1 (stereo not shown) read Mtb heat-shock: 6.375%; Mtb growth Cornell: 19.68%.
CC(C)(C)c1cn(C[C@H]2CC3CCN2C[C@@H]3C(=O)N2CCOCC2)nn1 (stereo partly shown) read Mtb heat-shock: -11.07%; Mtb growth Cornell: -18.95%; LdMetRS: 3.729%.

The last 3 entries again:

{"compound": "O=C(O)C(F)(F)F.O=C(O)C(F)(F)F.[H][C@@]12OCCN(CC3CCOCC3)[C@@]1([H])CC[C@H]2OCCCn1cccn1", "Mtb heat-shock": 7.852, "Mtb growth Cornell": -30.39}
{"compound": "Cl.Cn1cc(CNC2CCC(O)CC2)c(-c2cc3ccccc3o2)n1", "stereo": "stereo not shown", "Mtb heat-shock": 6.375, "Mtb growth Cornell": 19.68}
{"compound": "CC(C)(C)c1cn(C[C@H]2CC3CCN2C[C@@H]3C(=O)N2CCOCC2)nn1", "stereo": "stereo partly shown", "Mtb heat-shock": -11.07, "Mtb growth Cornell": -18.95, "LdMetRS": 3.729}